Where “and” joins values, the source holds several entries; their conditions need not be identical. Equal entries are not always repeated. Screen size: about 320,000 compounds; about 740 (0.23%) were called active. Inconclusive results, whose numbers are uncertain, are shown with a selection of clear calls. The call rests on the fitted dose curve; in most records, active means well fitted activation curve with a large enough effect; inconclusive means small, poorly fitted or top-dose-only effect; inactive means no such curve, though single readings can be large or run the other way. A potency beside an inconclusive call is a rough fit, not a confirmed value.
Assay: qHTS Assay for Small Molecule Inhibitors of Mitochondrial Division or Activators of Mitochondrial Fusion; further: nearly all actives have a fitted effect of over 45% in size
Details: S. cerevisiae fusion-defective mutant growth rescue, CellTiterGlo 48 h; series mostly up to 46.1 µM
Procedure, shortened: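 S. cerevisiae fusion-defective temperature-sensitive mutants (e.g. fzo1-1, mgm1-5) grown 48 h at 37C in YPEG (ethanol/glycerol non-fermentable) medium with 23 nl compound per well; growth rescue read as CellTiterGlo luminescence.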
Potency means the concentration at half of the fitted maximal effect.

Q: With `CCCC1=NN(C(=O)Cc2ccc([N+](=O)[O-])cc2)C(O)(C(F)(F)F)C1` (centres undefined) as the compound, how does the Potency read?
A: Its Potency is “inactive”.

Q: Which Potency does the source give for `CC(=O)C1=NN(c2ccccc2)C(c2ccc3c(c2)OCO3)N1c1ccccc1` (centres undefined) here?
A: Its Potency is inconclusive: 15.8 µM [activator, single point].

Q: With `COc1ccccc1CCNC(=O)c1csc2c1CCCC2` as the compound, how does the Potency read?
A: Its Potency is inconclusive: 35.5 µM [activator, single point].

Q: Which Potency does the source give for `COc1ccc(Cl)c2sc(N(CCN(C)C)C(=O)CCS(=O)(=O)c3ccc(C)cc3)nc12` here?
A: The Potency was “inactive”.

Q: Which Potency does the source give for `CC(=O)Nc1cccc(-c2cc(-c3c(Cl)cccc3Cl)no2)c1` here?
A: The Potency was inconclusive: 2 µM [activator, partial curve].

Q: Which Potency does the source give for `CCOC(=O)c1c(C)[nH]c(C)c1C(=O)COC(=O)c1cc2ccccc2cc1O` here?
A: Its Potency is inconclusive: 12.6 µM [activator, partial curve].

Q: For `CC(NS(=O)(=O)c1cc2c3c(c1)CCC(=O)N3CCC2)c1ccccc1` (centres undefined), which Potency is on record?
A: Its Potency is “inactive”.

Q: Which Potency does the source give for `COc1ccc(-c2ccc(=O)n(Cc3c(F)cccc3Cl)n2)cc1` here?
A: The Potency was inconclusive: 0.316 µM [activator, full curve, poor fit].

Q: Which Potency does the source give for `Nc1ncnc2c1c(-c1ccc(Oc3ccccc3)cc1)cn2C1CCCC1` here?
A: The Potency was inconclusive: 35.5 µM [activator, single point] and inconclusive: 5.8 µM [activator, single point].

Q: Which Potency does the source give for `CN(c1ccccc1)S(=O)(=O)c1ccc(NC(=O)c2ccccc2)cc1` here?
A: Its Potency is active: 22.4 µM.

Q: With `CC(=O)Oc1ccc2c3c(c(=O)oc2c1C)CCCC3` as the compound, how does the Potency read?
A: The Potency was “inactive”.

Q: Which Potency does the source give for `O=C(COC(=O)C12CC3CC(CC(C3)C1)C2)Nc1ccccc1F` here?
A: Its Potency is inconclusive: 11.2 µM [activator, partial curve].

Q: Which Potency does the source give for `N#CC(C#N)=Cc1ccc(OCC(=O)N2CCOCC2)cc1` here?
A: Its Potency is inconclusive: 35.5 µM [activator, single point].

Q: For `COc1ccccc1N1CCN(Cc2ccc(OC)c(OC)c2OC)CC1`, which Potency is on record?
A: Its Potency is “inactive”.

Q: For `Cc1cc(Cl)ccc1OCC(=O)NC(=S)Nc1ccccc1N1CCOCC1`, which Potency is on record?
A: Its Potency is “inactive”.

Q: Which Potency does the source give for `COC(=O)C1=C(C)N(CCc2c[nH]c3ccccc23)C(=O)/C1=C\N(C)C` here?
A: Its Potency is “inactive”.

Q: With `O=C(NCc1ccccc1)c1ccc(CN2CCOCC2)cc1` as the compound, how does the Potency read?
A: Its Potency is inconclusive: 12.6 µM [activator, partial curve, poor fit].

Q: For `c1ccc(-[n+]2nc(Nc3cccc4ccccc34)sc2-c2c3ccccc3cc3ccccc23)cc1`, which Potency is on record?
A: The Potency was inconclusive: 2.82 µM [activator, full curve, poor fit].

Q: With `O=C(CCl)NN1C(=O)NC2(CCCCC2)C1=O` as the compound, how does the Potency read?
A: The Potency was inconclusive: 35.5 µM [activator, single point].

Source: PubChem BioAssay AID485298 (National Center for Advancing Translational Sciences (NCATS), 2010)
